These are yes or no findings as the source states them, for the method shown. Some binding calls cover weakened binding; strength is not graded here.

Binding data for 3 molecules are collected here from patent publication US20080026996A1, “Selective Vpac2 Receptor Reptide Agonists” (ELI LILLY AND COMPANY, priority 2004, published 2008).

Sequences and labels used below:
T1: rat VPAC2 receptor (rat, UniProt P35000 23-437)
T1 sequence (looked up): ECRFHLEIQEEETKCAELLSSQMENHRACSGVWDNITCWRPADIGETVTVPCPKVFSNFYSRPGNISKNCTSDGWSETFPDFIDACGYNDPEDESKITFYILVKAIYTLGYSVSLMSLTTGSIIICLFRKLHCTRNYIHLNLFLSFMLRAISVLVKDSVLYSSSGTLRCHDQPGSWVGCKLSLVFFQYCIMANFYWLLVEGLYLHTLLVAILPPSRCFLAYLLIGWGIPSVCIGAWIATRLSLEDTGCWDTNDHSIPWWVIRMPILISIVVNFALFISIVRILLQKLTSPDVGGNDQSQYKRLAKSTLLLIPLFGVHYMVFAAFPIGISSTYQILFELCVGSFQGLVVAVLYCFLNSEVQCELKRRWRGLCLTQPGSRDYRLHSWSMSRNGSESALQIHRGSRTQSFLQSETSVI

T2: rat PAC1 receptor (rat, UniProt P32215 20-523)
T2 sequence (looked up): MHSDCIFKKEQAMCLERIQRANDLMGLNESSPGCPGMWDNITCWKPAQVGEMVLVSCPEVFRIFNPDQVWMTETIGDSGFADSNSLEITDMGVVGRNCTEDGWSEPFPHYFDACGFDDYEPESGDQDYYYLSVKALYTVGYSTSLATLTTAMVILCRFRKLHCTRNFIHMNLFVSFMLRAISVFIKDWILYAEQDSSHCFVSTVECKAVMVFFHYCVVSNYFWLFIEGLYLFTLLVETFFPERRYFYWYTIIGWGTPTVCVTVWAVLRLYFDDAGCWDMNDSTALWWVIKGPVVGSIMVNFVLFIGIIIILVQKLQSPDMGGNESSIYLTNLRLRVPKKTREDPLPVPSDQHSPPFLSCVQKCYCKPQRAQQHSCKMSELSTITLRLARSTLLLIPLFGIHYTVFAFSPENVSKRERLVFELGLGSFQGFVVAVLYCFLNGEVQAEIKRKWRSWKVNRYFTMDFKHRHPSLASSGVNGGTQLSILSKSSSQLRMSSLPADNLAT

The target in one experiment is T1, rat VPAC2 receptor. Briefly: competition binding, CHO membranes.
Take MHSDAVFTDNYTRLRKQVAAKKYLQSIKNKRYGGPSSGAPPPS (N-terminal methionine added (M-), also called VPAC2-P104) [P104]: the binding result is reported as “binds”.

As to HSDAVFTDNYTRLRKQVAAKKYLQSIKNKRYGGPSSGAPPPS (N-terminal hexanoyl (C6)) [P31], the binding entry is “binds”.

Consider HSDAVFTDNYTRLLAKLALQKYLQSIKNKRYGGPSSGAPPPS (N-terminal hexanoyl (C6)) [P119], for which the binding result is reported as “binds”.

Another experiment concerns the target T2, rat PAC1 receptor. Briefly: competition binding, membranes; receptor inferred as rat PAC1.
With MHSDAVFTDNYTRLRKQVAAKKYLQSIKNKRYGGPSSGAPPPS (N-terminal methionine added (M-), also called VPAC2-P104) [P104], the binding entry is given as “no binding (tested: 10 µM)”.

As to HSDAVFTDNYTRLRKQVAAKKYLQSIKNKRYGGPSSGAPPPS (N-terminal hexanoyl (C6)) [P31], the binding result is recorded as “no binding (tested: 10 µM)”.

On to HSDAVFTDNYTRLLAKLALQKYLQSIKNKRYGGPSSGAPPPS (N-terminal hexanoyl (C6)) [P119], for which the binding entry is reported as “no binding (tested: 10 µM)”.
